This assay in a line: qHTS Assay to Find Inhibitors of Chronic Active B-Cell Receptor Signaling. Particulars: ABC-DLBCL IkBa-CBG/CBR reporter, luminescence ratio (green luciferase fused to IkBa over red control in TMD8 lymphoma cells), 4 h. In outline:
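Doxycycline induced both beetle luciferases in TMD8 lymphoma cells; IKK-driven degradation limits the IkappaBalpha-fused green signal, while red luminescence normalises for cell number and nonspecific effects. Compounds tested up to 46 uM, 4 hrs.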

[1] abbreviates: measured here: CBR red luminescence, cell number.
The mark [2] stands for this setting: measured here: IkBa-CBG green luminescence.

SMILES strings stand for the structures. Some of the results follow. Shown are side measurements of this screen, not its main read-out; they come without a call. Most of these compounds were active or inconclusive in the main read-out, so they are no random draw. The note in brackets gives the kind of curve behind each potency; many fits are weak.

As for `O=C(COC(=O)c1ccc2ccccc2c1)Nc1ncc(C(F)(F)F)cc1Cl`, the AC50 under setting [1] is 18.4 µM [rising, partial curve, poor fit].
The same measure, in the same setting: with `COc1ccc(/C=N/Nc2nc(-c3cccnc3)nc3ccccc23)cc1OC` the figure was 15.8 µM [falling, partial curve, poor fit]; with `COC(=O)CCCCCCCC(=O)Nc1nnc(C(F)(F)F)s1`, 7.08 µM [falling, partial curve, poor fit]; with `Cc1onc(-c2ccccc2)c1-c1csc(COc2ccccc2)n1`, 22.4 µM [rising, single point].
For the compound `CC(=O)Nc1sc(N/N=C\c2ccccc2F)nc1-c1cccs1`, under setting [1], the AC50 was 20.6 µM [falling, single point].
Take `CCN(CC(=O)Nc1ccc(NC(C)=O)cc1)C(=O)CSCC(=O)Nc1ccc(C)cc1`: the AC50 under setting [1] was 4.11 µM [rising, full curve, poor fit].
On to `CCSc1cc(C)nc2c(-c3ccccc3)c(C)nn12`, for which the AC50 under setting [1] is 8.2 µM [rising, partial curve].
On to `COc1ccc(CCCC(=O)NCCc2ccccc2)c(C)c1`, for which the AC50 under setting [1] was 11.2 µM [rising, partial curve, poor fit].
Take `C/C(=N\Nc1c(F)c(F)c(Br)c(F)c1F)c1ccncc1`: the AC50 under setting [1] is 2.24 µM [rising, partial curve, poor fit].
As to `O=C(Nc1cccc(CNCCc2c[nH]c3ccccc23)c1)c1ccccc1Cl`, the AC50 under setting [1] is 8.91 µM [falling, partial curve, poor fit].
Turning to `Clc1ccc(CN2C3=NCCCN3c3ccccc32)cc1Cl`, under setting [1], the AC50 is 35.5 µM [falling, single point].
For the compound `CCn1ccnc1CN(C)Cc1cn(-c2ccc(C)cc2)nc1-c1cccc(C)c1`, under setting [1], the AC50 was 35.5 µM [falling, single point].
Same read-out and setting: the result for `O=C(Cc1c(Sc2ccccc2)c2ccccc2n1Cc1ccccc1)NCCO` reads 29.1 µM [falling, single point]; that for `N#Cc1ccsc1NC(=O)CSc1ncnc2ccccc12`, 18.4 µM [falling, partial curve, poor fit].
With `CN1CCN(C(=O)c2cnn3c(C(F)(F)F)cc(-c4cccs4)nc23)CC1`, under setting [1], the AC50 was 0.103 µM [rising, full curve].
On to `CN1/C(=C\C=Nc2ccc3ccccc3c2)C(C)(C)c2ccccc21`, for which, under setting [1], the AC50 was 10 µM [falling, partial curve].
Consider `Nc1ccc(NC(=O)Nc2ccc(N)cc2)cc1`, for which the AC50 under setting [1] was 11.2 µM [falling, partial curve, poor fit].
Same read-out and setting: with `C=CCn1c(SCC(=O)N(C)C)nc2cc(C(=O)O)ccc2c1=O` the figure was 28.2 µM [falling, single point]; with `CC(C)N(Cc1cnn(C)c1)Cc1nc(Cc2ccccc2Cl)no1`, 0.398 µM [rising, full curve, poor fit].
Turning to `O=C(COc1ccc2c(-c3ccccc3)cc(=O)oc2c1)NCC1CCC(C(=O)O)CC1` (configuration not stated), the AC50 under setting [1] was 7.08 µM [rising, partial curve, poor fit].
As for `CCOC(=O)CNS(=O)(=O)c1cc(-c2nn(C)c(=O)c3ccccc23)ccc1C`, under setting [1], the AC50 is 31.6 µM [falling, single point].
Take `Cc1ccc(S(=O)(=O)N2CCN(C(=O)C(C)Cn3nc(C)c(C)c3C)CC2)cc1C` (configuration not stated): the AC50 under setting [1] was 0.0891 µM [falling, full curve, poor fit].
For `COc1ccc(S(=O)(=O)Nc2cccc(-c3ccc4nncn4n3)c2)cc1`, the AC50 under setting [2] was 18.4 µM [falling, single point].
With `COc1ccc(C2C(C(=O)c3sc(C)nc3C)=C(O)C(=O)N2CCN(C)C)cc1OC` (configuration not stated), the AC50 under setting [1] is 5.8 µM [falling, single point].
As for `Cc1ccc(C2C=C(c3ccccc3OC(F)F)Nc3ncnn32)cc1` (configuration not stated), under setting [1], the half-maximal activity concentration (AC50) is 4.61 µM [falling, partial curve, poor fit].
On to `O=C(Nc1cccc(Cl)c1)NC1CC2CCC(C1)N2Cc1cccs1` (configuration not stated), for which the AC50 under setting [1] is 35.5 µM [rising, single point].
Turning to `Cc1nc(C)c(/C(O)=C/c2nc3ccccc3oc2=O)s1`, under setting [1], the AC50 is 4.61 µM [falling, full curve, poor fit].
Turning to `Cc1ccc(S(=O)(=O)c2c(C)nn(C(C)(C)C)c2OC(=O)c2ccco2)cc1`, the concentration at half-maximal activity (AC50) under setting [1] is 25.1 µM [falling, single point].
On to `O=C(CSc1nnnn1C1CCCC1)N1CCN(C(=O)c2ccco2)CC1`, for which the AC50 under setting [1] is 29.1 µM [rising, single point].
With `CCOC(=O)N1CCN(C(=O)COc2cccc3c2CCN(Cc2ccc(F)cc2)C3=O)CC1`, under setting [1], the AC50 was 13 µM [falling, partial curve, poor fit].
`CCCCOC(=O)/C=C\C(=O)NC(N)=O`: the AC50 under setting [1] is 14.1 µM [falling, single point].
In the case of `Cc1cc(C)n(-c2ncnc3sc4c(c23)CCCC4)n1`, the AC50 under setting [1] is 35.5 µM [rising, single point].
Same read-out and setting: the result for `CC(C)Cn1c(N)c(C(=O)COC(=O)c2ccncc2)c(=O)n(C)c1=O` reads 3.55 µM [rising, partial curve, poor fit]; that for `Cc1ccc(-n2c(CCc3ccccc3)nnc2SCC(=O)NCc2ccccc2)cc1C`, 2.91 µM [rising, single point]; that for `COc1ccc(-n2ncc3c(=O)n(CC(C)=O)cnc32)cc1`, 35.5 µM [rising, single point].
On the same count and under the same terms, the result for `COc1ccc(-c2[nH]c(-c3ccc(F)cc3)nc2SCC(=O)NC2CCCC2)cc1` reads 29.1 µM [falling, single point].
In the case of `CN1c2ccccc2Sc2cc(N)ccc21`, under setting [2], the AC50 is 17.8 µM [falling, partial curve, poor fit].
On to `O=C(Nc1ncc(Cc2ccccc2)s1)C1COc2ccccc2O1` (configuration not stated), for which the AC50 under setting [1] is 0.562 µM [rising, full curve, poor fit].
Take `CC(=O)Nc1nc(-c2ccccc2)nc(C)c1C(C)=O`: the AC50 under setting [1] is 18.4 µM [rising, single point].
Take `COc1ccc(-c2nc(C#N)c(NCC3CCCO3)o2)cc1` (configuration not stated): under setting [1], the AC50 is 10.3 µM [rising, partial curve, poor fit].
Take `CCN=c1sc(C(=O)NCCc2ccccc2)cc(=O)n1CC`: under setting [1], the half-maximal activity concentration (AC50) is 11.2 µM [falling, partial curve].
`CCOc1ccccc1NC(=O)Nc1ccc(Cl)cc1`: the AC50 under setting [1] was 25.9 µM [falling, partial curve, poor fit].

Source of the values: PubChem BioAssay AID493014 (National Center for Advancing Translational Sciences (NCATS), 2011).
